Source: US7927486B2, “Polymer modified porous substrate for solid phase extraction” (priority 2005, dated 2011)
Counter-ions that a name gives are not always drawn.

Key:
[1] = Capacity of polymer modified glass fiber monoliths for analytes; details: PSDVB—NHCOCH3 sorbent; weight adsorbed at 30% breakthrough; N=3
[2] = as above; details: PSDVB sorbent; weight adsorbed at 30% breakthrough; N=3

CCCC(C)(COC(N)=O)COC(=O)NC(C)C (stereo not shown) [Carisoprodol]
Amount of analyte adsorbed (sorbent capacity) [1]: 1.2 µg
Amount of analyte adsorbed (sorbent capacity) [2]: 0 µg

CCCCNCC(O)c1ccc(O)cc1.CCCCNCC(O)c1ccc(O)cc1.O=S(=O)(O)O (stereo not shown) [Bamathan hemisulfate]
Amount of analyte adsorbed (sorbent capacity) [1]: 2.0 µg
Amount of analyte adsorbed (sorbent capacity) [2]: 0 µg

CC(C)(C)NCC(O)c1ccc(O)c(CO)c1 (stereo not shown) [Salbutamol]
Amount of analyte adsorbed (sorbent capacity) [1]: 0 µg
Amount of analyte adsorbed (sorbent capacity) [2]: 0 µg

CC(C)(C)NC[C@H](O)COc1nsnc1N1CCOCC1 [Timolol maleate]
Amount of analyte adsorbed (sorbent capacity) [1]: 1.2 µg
Amount of analyte adsorbed (sorbent capacity) [2]: 0 µg

CNC(=C[N+](=O)[O-])NCCSCc1ccc(CN(C)C)o1 [Ranitidine HCl]
Amount of analyte adsorbed (sorbent capacity) [1]: 1.1 µg
Amount of analyte adsorbed (sorbent capacity) [2]: 0 µg
